PMC9600550, “The pH Robustness of Bacterial Sensing” (mBio, 2022)

Chains of the proteins cited; added tags and fusions are not shown. Residues count along the entry.
UniProt P07017, 31-188 limits assumed: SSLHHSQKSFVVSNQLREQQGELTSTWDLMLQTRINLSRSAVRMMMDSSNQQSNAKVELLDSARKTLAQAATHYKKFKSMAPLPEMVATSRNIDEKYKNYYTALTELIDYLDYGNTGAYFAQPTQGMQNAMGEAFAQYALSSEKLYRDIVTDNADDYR

Target: Tar-LBD (Escherichia coli, UniProt P07017)
Assay: Differential scanning calorimetry of Tar-LBD thermal unfolding in presence of L-Asp
Settings: pH 7.0; 1 mM L-Asp; two transitions

Compound: N[C@@H](CC(=O)O)C(=O)O [L-aspartate]
- ΔH of Tar-LBD thermal unfolding: 79.3 kcal/mol and 26.2 kcal/mol

Not every entry of the source has a single result; some have several. They are shown here; other results are not. The source may hold further records. The values listed for one entry do not match, cause unknown; some may be repeats, others may stem from another dose, organism or construct than stated.
